From patent publication US20110152332A1, “Pesticidal Heterocyclic Compounds” (Bayer CropScience AG, priority 2009, published 2011)
Some of these results come from one statement about several compounds together.

Tests used:
Type in all cases: in vivo
[1] = test system: Lucilia cuprina 1st instar larvae; assay: Lucilia cuprina-test (LUCICU 48 h); conditions: application rate 100 ppm; 1st instar larvae on minced horse meat; after 2 days
Description: Species: Lucilia cuprina 1st instar larvae (age 24 hrs)
(§1) Solvent: dimethyl sulfoxide
10 mg active compound are dissolve in 0.5 ml Dimethylsulfoxid. Serial dilutions are made to obtain the desired rates. Approximately 20 Lucilia cuprina 1st instar larvae are transferred into a test tube containing 1 cm^3 of minced horse meat and 0.5 ml aqueous dilution of test compound. After 2 days percentage of larval mortality are recorded. 100% efficacy=all larvae are killed, […].

Musca domestica = assay: Musca domestica-test; conditions: application rate 100 ppm; adults, sugar/compound soaked sponge; after 2 days
Description: as §1
To produce a suitable preparation of active compound, 10 mg of active compound are dissolved in 0.5 ml solvent, and the concentrate is diluted with water to the desired concentration. Prior to the assay, a piece of kitchen sponge is soaked with a mixture of sugar and compound solution and placed into a container. 10 adults (Musca domestica) are placed into the container and closed with a perforated lid. After 2 days mortality in % is determined. 100% means that all the flies have been killed; 0% means that none of the flies have been killed.

Boophilus microplus = assay: Boophilus microplus-test (BOOPMI injection); conditions: application rate 20 μg/animal; injection into abdomen of adult engorged female ticks; after 7 days
Ctenocephalides felis = assay: Ctenocephalides felis-test (CTECFE); conditions: application rate 100 ppm in cattle blood; adult unfed fleas; after 2 days
Description: as §1
To produce a suitable preparation of active compound, 10 mg of active compound are dissolved in 0.5 ml solvent, and the concentrate is diluted with cattle blood to the desired concentration. Approximately 20 adult unfed (Ctenocephalides felis) are placed in flea chambers. The blood chamber, sealed with parafilm on the bottom, are filled with cattle blood supplied with compound solution and placed on top of the flea chamber, so that the fleas are able to suck the blood. The blood chamber is heated to 37° C. whereas the flea chamber is kept at room temperature. After 2 days mortality in % is determined. 100% means that all the fleas have been killed; 0% means that none of the fleas have been killed.

O=C(CC(F)(F)F)NCc1ccc(N2CC(c3cc(Cl)cc(Cl)c3)(C(F)(F)F)OC2=O)cc1C(F)(F)F (stereo not drawn) [Compound 1-7]
100%: activity (percentage of larval mortality) [1] | activity (mortality in %) (Musca domestica) | activity (mortality in %; 100% means that all eggs are infertile) (Boophilus microplus)

CCC(=O)NCc1ccc(N2CC(c3cccc(C(F)(F)F)c3)(C(F)(F)F)OC2=O)cc1C(F)(F)F (stereo not drawn) [Compound 1-73]
100%: activity (percentage of larval mortality) [1] | activity (mortality in %) (Ctenocephalides felis) | activity (mortality in %; 100% means that all eggs are infertile) (Boophilus microplus)

C[C@H](NC(=O)C1CC1)c1ccc(N2CC(c3cc(Cl)c(Cl)c(Cl)c3)(C(F)(F)F)OC2=O)cc1 (stereo partly drawn) [Compound 1-373-a]
100%: activity (percentage of larval mortality) [1] | activity (mortality in %) (Musca domestica) | activity (mortality in %) (Ctenocephalides felis) | activity (mortality in %; 100% means that all eggs are infertile) (Boophilus microplus)

CCC(=O)NCc1ccc(N2CC(c3cc(Cl)c(Cl)c(Cl)c3)(C(F)(F)F)OC2=O)cc1Cl (stereo not drawn) [Compound 1-31]
100%: activity (percentage of larval mortality) [1] | activity (mortality in %) (Ctenocephalides felis) | activity (mortality in %; 100% means that all eggs are infertile) (Boophilus microplus)

CCC(=O)NCc1ccc(N2CC(c3cc(Cl)c(Cl)c(Cl)c3)(C(F)(F)F)OC2=O)cc1C(F)(F)F (stereo not drawn) [Compound 1-17]
100%: activity (percentage of larval mortality) [1] | activity (mortality in %) (Ctenocephalides felis) | activity (mortality in %; 100% means that all eggs are infertile) (Boophilus microplus)

O=C(NCc1ccc(N2CC(c3cccc(C(F)(F)F)c3)(C(F)(F)F)OC2=O)cc1C(F)(F)F)C1CC1 (stereo not drawn) [Compound 1-75]
100%: activity (percentage of larval mortality) [1] | activity (mortality in %) (Musca domestica) | activity (mortality in %) (Ctenocephalides felis) | activity (mortality in %; 100% means that all eggs are infertile) (Boophilus microplus)

Cc1cc(N2CC(c3cc(C(F)(F)F)cc(C(F)(F)F)c3)(C(F)(F)F)OC2=O)ccc1CNC(=O)C1CC1 (stereo not drawn) [Compound 1-159]
100%: activity (percentage of larval mortality) [1] | activity (mortality in %; 100% means that all eggs are infertile) (Boophilus microplus)

O=C(CC(F)(F)F)NCc1ccc(N2CC(c3cc(C(F)(F)F)cc(C(F)(F)F)c3)(C(F)(F)F)OC2=O)cc1Cl (stereo not drawn) [Compound 1-147]
100%: activity (percentage of larval mortality) [1] | activity (mortality in %) (Musca domestica) | activity (mortality in %; 100% means that all eggs are infertile) (Boophilus microplus)

O=C(NCc1ccc(N2CC(c3cc(C(F)(F)F)cc(C(F)(F)F)c3)(C(F)(F)F)OC2=O)cc1Cl)C1CC1 (stereo not drawn) [Compound 1-145]
100%: activity (percentage of larval mortality) [1] | activity (mortality in %; 100% means that all eggs are infertile) (Boophilus microplus)

O=C(CC(F)(F)F)NCc1ccc(N2CC(c3cc(Cl)c(Cl)c(Cl)c3)(C(F)(F)F)OC2=O)cc1C(F)(F)F (stereo not drawn) [Compound 1-21]
100%: activity (percentage of larval mortality) [1] | activity (mortality in %) (Musca domestica) | activity (mortality in %) (Ctenocephalides felis) | activity (mortality in %; 100% means that all eggs are infertile) (Boophilus microplus)

Cc1cc(N2CC(c3cc(C(F)(F)F)cc(C(F)(F)F)c3)(C(F)(F)F)OC2=O)ccc1CNC(=O)C[S+](C)[O-] (stereo not drawn) [Compound 1-163]
100%: activity (mortality in %; 100% means that all eggs are infertile) (Boophilus microplus)

CCC(=O)NC1CCc2cc(N3CC(c4cc(Cl)c(Cl)c(Cl)c4)(C(F)(F)F)OC3=O)ccc21 (stereo not drawn) [Compound 4-31]
100%: activity (percentage of larval mortality) [1] | activity (mortality in %) (Musca domestica) | activity (mortality in %) (Ctenocephalides felis) | activity (mortality in %; 100% means that all eggs are infertile) (Boophilus microplus)

CC(=O)NCc1ccc(N2CC(c3cc(C(F)(F)F)cc(C(F)(F)F)c3)(C(F)(F)F)OC2=O)cc1Cl (stereo not drawn) [Compound 1-142]
100%: activity (percentage of larval mortality) [1] | activity (mortality in %) (Ctenocephalides felis) | activity (mortality in %; 100% means that all eggs are infertile) (Boophilus microplus)

O=C(CC(F)(F)F)NCc1ccc(N2CC(c3cccc(C(F)(F)F)c3)(C(F)(F)F)OC2=O)cc1C(F)(F)F (stereo not drawn) [Compound 1-77]
100%: activity (percentage of larval mortality) [1] | activity (mortality in %) (Musca domestica) | activity (mortality in %) (Ctenocephalides felis) | activity (mortality in %; 100% means that all eggs are infertile) (Boophilus microplus)

CCC(=O)NCc1ccc(N2CC(c3cc(Cl)c(Cl)c(Cl)c3)(C(F)(F)F)OC2=O)cc1 (stereo not drawn) [Compound 1-59]
100%: activity (percentage of larval mortality) [1] | activity (mortality in %; 100% means that all eggs are infertile) (Boophilus microplus)

Cc1cc(N2CC(c3cc(C(F)(F)F)cc(C(F)(F)F)c3)(C(F)(F)F)OC2=O)ccc1CNC(=O)CC(F)(F)F (stereo not drawn) [Compound 1-161]
100%: activity (percentage of larval mortality) [1] | activity (mortality in %) (Musca domestica) | activity (mortality in %; 100% means that all eggs are infertile) (Boophilus microplus)

CC(=O)NCc1ccc(N2CC(c3cc(Cl)cc(Cl)c3)(C(F)(F)F)OC2=O)cc1C(F)(F)F (stereo not drawn) [Compound 1-2]
100%: activity (percentage of larval mortality) [1] | activity (mortality in %) (Musca domestica) | activity (mortality in %; 100% means that all eggs are infertile) (Boophilus microplus)

CC(=O)NCc1ccc(N2CC(c3cc(Cl)c(Cl)c(Cl)c3)(C(F)(F)F)OC2=O)cc1C(F)(F)F (stereo not drawn) [Compound 1-16]
100%: activity (percentage of larval mortality) [1] | activity (mortality in %) (Ctenocephalides felis) | activity (mortality in %; 100% means that all eggs are infertile) (Boophilus microplus)
